Results as given in the supplement of paper PMC10331698.
± gives the standard deviation of the averaged measurements. Most entries show no effect beyond the scatter of the controls.

Key:
Assay in all cases: level (log10 ratio to DMSO vehicle control); higher = higher biomarker level / cell amount than vehicle control
[1] = compound: C=C(C)C(=O)OCC(F)(F)C(F)(F)C(F)(F)C(F)(F)C(F)(F)C(F)(F)C(F)(F)F; settings: in DMSO
Method: (§1)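 BioMAP Diversity Plus panel of 12 human primary cell co-culture systems (3C, 4H, LPS, SAg, BT, BF4T, BE3C, CASM3C, HDF3CGF, KF3CT, MyoF, Mphg). Compounds were added 1 h before stimulation and left for 24 h (MyoF 48 h; BT 72 h for soluble read-outs or 6 d for IgG). Biomarkers were read by ELISA, cytotoxicity by SRB, PBMC viability and proliferation by Alamar Blue. Each well value was divided by the mean of 8 DMSO control wells on the same plate and log10 transformed; duplicate blinded samples were tested at 4 concentrations.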

[2] = compound: C=CC(=O)OCC(F)(F)C(F)(F)C(F)(F)C(F)(F)C(F)(F)C(F)(F)C(F)(F)F [1H,1H-Perfluorooctyl acrylate]; settings: 2200 nM; in DMSO
Method: as §1

[3] = compound: C=CC(F)(F)C(F)(F)C(F)(F)C(F)(F)C(F)(F)C(F)(F)C(F)(F)C(F)(F)C=C [1,8-Divinylperfluorooctane]; settings: in DMSO
Method: as §1

[4] = compound: COC(=O)C(F)(F)C(F)(F)OC(F)(C(F)(F)F)C(F)(F)OC(F)=C(F)F [Methyl perfluoro(3-(1-ethenyloxypropan-2-yloxy)propanoate)]; settings: in DMSO
Method: as §1

[5] = compound: CO[Si](C)(CCC(F)(F)C(F)(F)C(F)(F)C(F)(F)C(F)(F)C(F)(F)F)OC [Dimethoxymethyl((perfluorohexyl)ethyl)silane]; settings: in DMSO
Method: as §1

[6] = compound: FC(F)(F)C(F)(F)C(F)(F)CC1CO1 [1H,1H-Heptafluorobutyl epoxide]; settings: 2200 nM; in DMSO
Method: as §1

Heptafluorobutyl iodide = compound: FC(F)(F)C(F)(F)C(F)(F)CI [Heptafluorobutyl iodide]; settings: 2200 nM; in DMSO
Method: as §1

[7] = compound: NC(=O)C(F)(F)C(F)(F)C(F)(F)C(F)F; settings: in DMSO
Method: as §1

Pentafluoropropionamide = compound: NC(=O)C(F)(F)C(F)(F)F [Pentafluoropropionamide]; settings: 2200 nM; in DMSO
Method: as §1

[8] = compound: NS(=O)(=O)C(F)(F)C(F)(F)C(F)(F)C(F)(F)C(F)(F)C(F)(F)C(F)(F)C(F)(F)F [Perfluorooctanesulfonamide]; settings: in DMSO
Method: as §1

[9] = compound: O=C(O)C(F)(F)C(F)(F)C(F)F [4H-Perfluorobutanoic acid]; settings: in DMSO
Method: as §1

[10] = compound: O=P(O)(O)CCC(F)(F)C(F)(F)C(F)(F)C(F)(F)C(F)(F)C(F)(F)F [2-(Perfluorohexyl)ethylphosphonic acid]; settings: 2200 nM; in DMSO
Method: as §1

[11] = compound: O=S(=O)(F)C(F)(F)C(F)(F)C(F)(F)C(F)(F)C(F)(F)C(F)(F)C(F)(F)C(F)(F)F [Perfluorooctanesulfonyl fluoride]; settings: 2200 nM; in DMSO
Method: as §1

[12] = compound: O=S(=O)(O)C(F)(F)C(F)(F)C(F)(F)C(F)(F)C(F)(F)C(F)(F)C(F)(F)C(F)(F)F [Perfluorooctanesulfonic acid]; settings: 2200 nM; in DMSO
Method: as §1

[13] = compound: O=S(=O)(O)C(F)(F)C(F)(F)C(F)(F)C(F)(F)C(F)(F)C(F)(F)C(F)(F)C(F)(F)F [Potassium perfluorooctanesulfonate]; settings: 2200 nM; in DMSO
Method: as §1

[14] = compound: O=S(=O)(OCC(F)(F)F)C(F)(F)C(F)(F)C(F)(F)C(F)(F)F [2,2,2-Trifluoroethyl perfluorobutanesulfonate]; settings: 2200 nM; in DMSO
Method: as §1

[15] = compound: OCC(F)(F)C(F)(F)C(F)(F)C(F)(F)C(F)(F)C(F)F [1H,1H,7H-Dodecafluoro-1-heptanol]; settings: 2200 nM; in DMSO
Method: as §1

[16] = compound: OCCCCC(F)(F)C(F)(F)C(F)(F)C(F)(F)F [4:4 Fluorotelomer alcohol]; settings: 2200 nM; in DMSO
Method: as §1

Row | Test System | level (log10) ([1]; 740 nM) | level (log10) ([1]; 2200 nM) | level (log10) [2] | level (log10) ([3]; 740 nM) | level (log10) ([3]; 2200 nM) | level (log10) ([4]; 740 nM) | level (log10) ([4]; 2200 nM) | level (log10) ([5]; 740 nM) | level (log10) ([5]; 2200 nM) | level (log10) [6] | level (log10) (Heptafluorobutyl iodide) | level (log10) ([7]; 2200 nM) | level (log10) ([7]; 6700 nM) | level (log10) ([7]; 20000 nM) | level (log10) ([7]; 60000 nM) | level (log10) (Pentafluoropropionamide) | level (log10) ([8]; 2200 nM) | level (log10) ([8]; 6700 nM) | level (log10) ([8]; 20000 nM) | level (log10) ([9]; 2200 nM) | level (log10) ([9]; 6700 nM) | level (log10) ([9]; 20000 nM) | level (log10) ([9]; 60000 nM) | level (log10) [10] | level (log10) [11] | level (log10) [12] | level (log10) [13] | level (log10) [14] | level (log10) [15] | level (log10) [16]
1 | LPS:CD62E/E-Selectin | -0.048 ± 0.065 | -0.056 ± 0.034 | -0.005 ± 0.011 | 0.0005 ± 0.022 | -0.0335 ± 0.0021 | -0.002 ± 0.0057 | 0.002 | 0.0065 ± 0.047 | 0.0055 ± 0.025 | 0.0285 ± 0.00071 | 0.0165 ± 0.06 | -0.002 ± 0.02 | -0.0115 ± 0.022 | -0.023 ± 0.0014 | -0.016 ± 0.016 | 0.0045 ± 0.0078 | 0.0065 ± 0.00071 | -0.015 ± 0.023 | 0.018 ± 0.016 | -0.0075 ± 0.005 | -0.006 ± 0.013 | 0.002 ± 0.0028 | 0.0075 ± 0.011 | 0.0115 ± 0.016 | -0.004 ± 0.011 | 0.0015 ± 0.028 | 0.0035 ± 0.03 | 0.023 ± 0.021 | 0.003 ± 0.021 | -0.005 ± 0.031
2 | HDF3CGF:MMP-1 | 0.002 ± 0.0085 | 0.002 ± 0.0014 | 0.0315 ± 0.016 | -0.008 ± 0.028 | 0.0005 ± 0.025 | -0.0205 ± 0.032 | 0.015 ± 0.0057 | -0.0015 ± 0.03 | 0.0055 ± 0.035 | 0.0275 ± 0.005 | -0.018 ± 0.04 | -0.007 ± 0.0071 | 0.0005 ± 0.00071 | -0.006 ± 0.0042 | 0.003 ± 0.0071 | -0.004 ± 0.024 | -0.004 ± 0.018 | 0.0145 ± 0.026 | -0.206 ± 0.096 | 0.007 ± 0.0099 | 0.0005 ± 0.0021 | -0.0025 ± 0.0035 | 0.0075 ± 0.021 | -0.0145 ± 0.005 | 0.005 ± 0.0042 | -0.0085 ± 0.0078 | -0.0015 ± 0.0092 | 0.005 ± 0.0014 | 0.0175 ± 0.0092 | 0 ± 0.0071
3 | KF3CT:CXCL8/IL-8 | -0.0015 ± 0.0064 | -0.0005 ± 0.011 | -0.012 | 0.0025 ± 0.03 | -0.0125 ± 0.0064 | 0 ± 0.0014 | -0.01 ± 0.016 | -0.0135 ± 0.0021 | -0.02 ± 0.0071 | -0.009 ± 0.044 | -0.0105 ± 0.0064 | 0.005 ± 0.014 | -0.009 ± 0.0028 | 0.011 ± 0.011 | 0.019 ± 0.011 | -0.0005 ± 0.028 | 0.0005 ± 0.005 | -0.0135 ± 0.021 | -0.0525 ± 0.018 | 0.005 ± 0.02 | 0.0025 ± 0.0078 | 0.01 ± 0.0085 | 0.017 ± 0.0042 | -0.013 ± 0.018 | 0.008 ± 0.055 | -0.003 ± 0.021 | 0.007 | -0.0035 ± 0.0078 | 0.0185 ± 0.03 | 0.012 ± 0.0085
4 | BF4T:uPA | 0.0015 ± 0.028 | -0.0245 ± 0.018 | 0.0055 ± 0.012 | -0.004 ± 0.025 | -0.0185 ± 0.013 | 0.014 ± 0.057 | -0.007 ± 0.0071 | 0.002 ± 0.038 | -0.011 ± 0.02 | -0.006 ± 0.028 | 0.0015 ± 0.0021 | 0.0075 ± 0.016 | -0.001 ± 0.023 | -0.0145 ± 0.015 | -0.004 ± 0.021 | -0.0035 ± 0.011 | -0.0015 ± 0.012 | 0.014 ± 0.016 | 0.005 ± 0.034 | -0.0105 ± 0.029 | 0.002 ± 0.016 | 0.019 ± 0.0014 | 0.0105 ± 0.0021 | -0.0225 ± 0.036 | 0.006 ± 0.0028 | 0.014 ± 0.045 | 0.017 ± 0.023 | 0 ± 0.027 | 0.004 ± 0.0042 | -0.0025 ± 0.035
5 | BF4T:CD106/VCAM-1 | 0.0115 ± 0.054 | -0.0155 ± 0.026 | -0.026 ± 0.038 | 0.0205 ± 0.015 | 0.0035 ± 0.005 | 0.0175 ± 0.047 | -0.0225 ± 0.016 | 0.0115 ± 0.035 | 0.0105 ± 0.013 | -0.002 ± 0.0071 | 0.014 ± 0.059 | 0.011 ± 0.064 | -0.015 ± 0.0028 | -0.014 ± 0.0042 | -0.003 ± 0.023 | -0.0095 ± 0.0092 | 0.0045 ± 0.0035 | -0.052 ± 0.0057 | -0.1125 ± 0.00071 | -0.025 ± 0.05 | 0.0145 ± 0.033 | -0.0365 ± 0.054 | 0.028 ± 0.078 | 0.029 ± 0.051 | -0.0055 ± 0.005 | -0.0155 ± 0.025 | 0.0315 ± 0.059 | -0.008 ± 0.016 | 0.027 ± 0.061 | 0.0495 ± 0.066
6 | BT:sIL-17A | -0.0115 ± 0.053 | 0.0025 ± 0.097 | -0.0765 ± 0.056 | 0.058 ± 0.21 | 0.127 ± 0.076 | 0.039 ± 0.028 | -0.0445 ± 0.4 | 0.0465 ± 0.12 | -0.0345 ± 0.012 | -0.041 ± 0.099 | -0.169 ± 0.091 | -0.116 ± 0.059 | 0.059 ± 0.033 | 0.025 ± 0.19 | -0.0885 ± 0.32 | -0.026 ± 0.024 | -0.051 ± 0.038 | -0.0315 ± 0.16 | 0.0435 ± 0.052 | -0.0835 ± 0.12 | 0.067 ± 0.13 | -0.085 ± 0.02 | -0.158 ± 0.033 | 0.0785 ± 0.032 | -0.112 ± 0.14 | 0.0815 ± 0.021 | 0.043 ± 0.055 | 0.096 ± 0.21 | -0.121 ± 0.1 | -0.053 ± 0.1
7 | 3C:CD54/ICAM-1 | 0.018 ± 0.027 | -0.006 ± 0.02 | 0.014 ± 0.021 | 0.011 ± 0.035 | -0.0035 ± 0.0035 | 0.01 ± 0.0085 | 0.0005 ± 0.0035 | -0.002 ± 0.0042 | 0.012 | 0.0015 ± 0.03 | 0.0005 ± 0.022 | -0.021 ± 0.014 | -0.0095 ± 0.013 | -0.0115 ± 0.019 | -0.0095 ± 0.025 | 0.011 ± 0.025 | 0.0045 ± 0.0035 | -0.0005 ± 0.005 | 0.002 ± 0.011 | 0.0045 ± 0.0021 | -0.016 ± 0.0014 | -0.0105 ± 0.018 | 0.0025 ± 0.0092 | 0.005 ± 0.037 | 0.006 ± 0.017 | 0.004 ± 0.016 | -0.004 ± 0.018 | 0.005 ± 0.0071 | -0.0005 ± 0.0035 | -0.01 ± 0.021
8 | HDF3CGF:M-CSF | 0.022 ± 0.081 | 0.0065 ± 0.019 | -0.005 ± 0.025 | 0.0075 ± 0.013 | -0.032 ± 0.028 | 0.029 ± 0.0071 | 0.013 ± 0.047 | 0.02 | -0.0215 ± 0.018 | 0.0275 ± 0.069 | -0.0615 ± 0.066 | -0.001 ± 0.017 | -0.0065 ± 0.0078 | -0.008 ± 0.0014 | 0.017 ± 0.031 | 0.004 ± 0.03 | 0.017 ± 0.051 | -0.0605 ± 0.012 | -0.507 ± 0.07 | -0.0045 ± 0.037 | -0.0305 ± 0.035 | -0.013 ± 0.033 | -0.015 ± 0.041 | -0.006 ± 0.025 | -0.0435 ± 0.069 | 0.005 ± 0.0057 | 0.0285 ± 0.0035 | 0.007 ± 0.014 | 0.012 ± 0.018 | -0.006
